Patent US7906486B2, “Method of treating or preventing tissue deterioration, injury or damage due to disease of mucosa” (SciClone Pharmaceuticals, Inc., priority 2007, dated 2011)
“And” between values parts separate entries of the source, which are not always exact repeats. Equal entries are not always repeated. This continues a long series; more values of the same kind are listed elsewhere.

System: oral mucositis induced by acute radiation (40 Gy, left buccal cheek pouch)
Experiment: Oral mucositis induced by acute radiation in hamsters, mucositis scoring (Example 1, SCI-01)
Format: in vivo, Syrian Golden Hamsters
Parameters: key: 0: Pouch completely healthy. No erythema or vasodilation.; 1: Light to severe erythema and vasodilation. No erosion of mucosa.; 2: Severe erythema and vasodilation. Erosion of superficial aspects of mucosa leaving denuded areas. Decreased stippling of mucosa.; 3: Formation of off-white ulcers in one or more places. Ulcers may have a yellow/gray due to pseudomembrane. Cumulative size of ulcers should equal about ¼ of the pouch. Severe erythema and vasodilation.; 4: Cumulative seize of ulcers should equal about ½ of the pouch. Loss of pliability. Severe erythema and vasodilation.; 5: Virtually all of pouch is ulcerated. Loss of pliability (pouch can only partially be extracted from mouth)
Description: The acute radiation model in hamsters has proven to be an accurate, efficient and cost-effective technique to provide a preliminary evaluation of anti-mucositis compounds. The course of mucositis in this model is well defined and results in peak scores approximately 14-16 Days following radiation. The acute model has little systemic toxicity, resulting in few hamster deaths, thus permitting the use of smaller groups (N=7-8) for initial efficacy studies. It has also been used to study specific mechanistic elements in the pathogenesis of mucositis. Molecules that show efficacy in the acute radiation model may be further evaluated in the more complex models of fractionated radiation, chemotherapy, or concomitant therapy.
In this study, an acute radiation dose of 40 Gy on day 0 was administered. Clinically significant mucositis was observed on days 12 through 28.
Thirty-two (32) Syrian Golden Hamsters were given an acute radiation dose of 40 Gy directed to their left buccal cheek pouch on day 0. Test materials were given by sub-cutaneous injection once daily. Dosing began one day before radiation (day −1) and continued until day 16. Mucositis was evaluated clinically starting on day 6, and continuing on alternate days until day 28.
The grade of mucositis was scored, beginning day 6, and for every second day thereafter, through and including day 28. The effect on mucositis of each drug treatment compared to placebo was assessed according to the following parameters:
The difference in the number of days hamsters in each group have ulcerative (score ≧3) mucositis.
On each evaluation day, the number of animals with a blinded mucositis score of 3 in each drug treatment group was compared to the control group. Differences were compared on a cumulative basis and statistical significance was determined by chi-square analysis. Efficacy, in this analysis, is defined by a significant reduction in the number of days that a group of animals had ulcerations (scores 3) when compared to the control group.
For each evaluation day the scores of the control group were compared to those of the treated groups using non-parametric rank sum analysis. Treatment success was considered as a statistically significant lowering of scores in the treated group on 2 or more days from day 6 to day 28.
Thirty-two Syrian Golden Hamsters were divided into four (4) groups of eight (8) animals each. All animals received a single dose of acute radiation of 40 Gy directed to their left buccal cheek pouch on day 0. This was accomplished by anesthetizing the animals and everting the left buccal pouch, while protecting the rest of the animals with a lead shield. Test materials were given by sub-cutaneous injection once daily as detailed in Table 1. Mucositis was evaluated clinically starting on Day 6, and continuing on alternate days until day 28.
Mucositis was induced using a standardized acute radiation protocol. A single dose of radiation (40 Gy/dose) was administered to all animals on day 0. Radiation was generated with a 160 kilovolt potential (15-ma) source at a focal distance of 30 cm, hardened with a 0.35 mm Cu filtration system. Irradiation targeted the left buccal pouch mucosa at a rate of 3.2 Gy/minute. Prior to irradiation, animals were anesthetized with an intraperitoneal injection of Ketamine (160 mg/kg) and Xylazine (8 mg/kg). The left buccal pouch was everted, fixed and isolated using a lead shield to protect all other parts of the hamster's body.
The mucositis score, weight change and survival were measured throughout the study as described above. For the evaluation of mucositis, the animals were anesthetized with an inhalation anesthetic, and the left pouch everted. Mucositis was scored visually by comparison to a validated photographic scale, ranging from 0 for normal, to 5 for severe ulceration (clinical scoring). In descriptive terms, this scale is defined as follows: […]

SMILES: N[C@H](CCC(=O)N[C@@H](Cc1c[nH]c2ccccc12)C(=O)O)C(=O)O [SCV-07, γ-D-glutamyl-L-tryptophan]
- Mucositis score (Group 2 (SCV-07 1 ug/kg, days -1 to 16), day 6, individual animals): 0 (6×) and 1 (2×)
- Mucositis score (Group 2 (SCV-07 1 ug/kg, days -1 to 16), day 8, individual animals): 1 (7×) and 0
- Mucositis score (Group 2 (SCV-07 1 ug/kg, days -1 to 16), day 10, individual animals): 2 (2×) and 1 (5×) and 3
- Mucositis score (Group 2 (SCV-07 1 ug/kg, days -1 to 16), day 12, individual animals): 2 (6×) and 3 and 1
- Mucositis score (Group 2 (SCV-07 1 ug/kg, days -1 to 16), day 14, individual animals): 3 (4×) and 2 (4×)
- Mucositis score (Group 2 (SCV-07 1 ug/kg, days -1 to 16), day 16, individual animals): 4 and 3 (7×)
- Mucositis score (Group 2 (SCV-07 1 ug/kg, days -1 to 16), day 18, individual animals): 4 (7×) and 3
- Mucositis score (Group 2 (SCV-07 1 ug/kg, days -1 to 16), day 20, individual animals): 3 (6×) and 2 and 4
- Mucositis score (Group 2 (SCV-07 1 ug/kg, days -1 to 16), day 22, individual animals): 3 (4×) and 2 (4×)
- Mucositis score (Group 2 (SCV-07 1 ug/kg, days -1 to 16), day 24, individual animals): 3 (4×) and 2 (4×)
- Mucositis score (Group 2 (SCV-07 1 ug/kg, days -1 to 16), day 26, individual animals): 2 (6×) and 3 and 1
- Mucositis score (Group 2 (SCV-07 1 ug/kg, days -1 to 16), day 28, individual animals): 0 and 1 (7×)
- Mucositis score (Group 3 (SCV-07 10 ug/kg, days -1 to 16), day 6, individual animals): 1 (5×) and 0 (3×)
- Mucositis score (Group 3 (SCV-07 10 ug/kg, days -1 to 16), day 8, individual animals): 1 (7×) and 0
- Mucositis score (Group 3 (SCV-07 10 ug/kg, days -1 to 16), day 10, individual animals): 1
- Mucositis score (Group 3 (SCV-07 10 ug/kg, days -1 to 16), day 12, individual animals): 2 (7×) and 1
- Mucositis score (Group 3 (SCV-07 10 ug/kg, days -1 to 16), day 14, individual animals): 2 (6×) and 3 (2×)
- Mucositis score (Group 3 (SCV-07 10 ug/kg, days -1 to 16), day 16, individual animals): 3
- Mucositis score (Group 3 (SCV-07 10 ug/kg, days -1 to 16), day 18, individual animals): 4 (6×) and 3 (2×)
- Mucositis score (Group 3 (SCV-07 10 ug/kg, days -1 to 16), day 20, individual animals): 3 (7×) and 2
- Mucositis score (Group 3 (SCV-07 10 ug/kg, days -1 to 16), day 22, individual animals): 2 (5×) and 1 (2×) and 3
- Mucositis score (Group 3 (SCV-07 10 ug/kg, days -1 to 16), day 24, individual animals): 2 (6×) and 3 (2×)
- Mucositis score (Group 3 (SCV-07 10 ug/kg, days -1 to 16), day 26, individual animals): 2 (5×) and 1 (2×) and 3
- Mucositis score (Group 3 (SCV-07 10 ug/kg, days -1 to 16), day 28, individual animals): 1 (6×) and 2 and 0
- Mucositis score (Group 4 (SCV-07 100 ug/kg, days -1 to 16), day 6, individual animals): 0 (5×) and 1 (3×)
- Mucositis score (Group 4 (SCV-07 100 ug/kg, days -1 to 16), day 8, individual animals): 1 (4×) and 0 (4×)
- Mucositis score (Group 4 (SCV-07 100 ug/kg, days -1 to 16), day 10, individual animals): 1 (7×) and 2
- Mucositis score (Group 4 (SCV-07 100 ug/kg, days -1 to 16), day 12, individual animals): 1 and 2 (7×)
- Mucositis score (Group 4 (SCV-07 100 ug/kg, days -1 to 16), day 14, individual animals): 2 (6×) and 3 (2×)
- Mucositis score (Group 4 (SCV-07 100 ug/kg, days -1 to 16), day 16, individual animals): 3 (6×) and 2 and 4
- Mucositis score (Group 4 (SCV-07 100 ug/kg, days -1 to 16), day 18, individual animals): 4 (5×) and 3 (2×) and 2
- Mucositis score (Group 4 (SCV-07 100 ug/kg, days -1 to 16), day 20, individual animals): 4 and 3 (5×) and 1 and 2
- Mucositis score (Group 4 (SCV-07 100 ug/kg, days -1 to 16), day 22, individual animals): 4 and 3 (3×) and 2 (3×) and 1
- Mucositis score (Group 4 (SCV-07 100 ug/kg, days -1 to 16), day 24, individual animals): 3 and 2 (7×)
- Mucositis score (Group 4 (SCV-07 100 ug/kg, days -1 to 16), day 26, individual animals): 3 (3×) and 2 and 1 (4×)
- Mucositis score (Group 4 (SCV-07 100 ug/kg, days -1 to 16), day 28, individual animals): 1 (6×) and 2 and 3
